Where a name gives a salt, the structure may show the parent alone. At least one structure is not confirmed: it was looked up by name or label, or the drawing left a doubt.
Tests used:
Assay type in all cases: cell-based, Vesicular stomatitis virus
[1] = test system: wtVSV
[2] = test system: VSVΔ51
[3] = test system: VSVΔ51; remark: listed apart in the source

COC(=O)/C=C/C(=O)O [MMF, monomethyl fumarate]
protective (suppressive) effect of VSVΔ51ΔG-infected cell supernatant on subsequent infection [1]: completely overcome this suppressive effect | protective (suppressive) effect of VSVΔ51ΔG-infected cell supernatant on subsequent infection [2]: completely overcome this suppressive effect | infection of VSVΔ51 / viral growth [3]: substantially enhanced infection

— patent US12440525B2 (priority 2017, dated 2025)
